# Test results taken from patent publication US20220296547A1, “METHODS AND COMPOSITIONS FOR TREATMENT OF DISEASES” (Tranexamic Technologies, LLC, priority 2020, published 2022).
# For at least one compound, name, drawing or mass did not settle the structure.
# How the values were obtained:
# CDCP1 cleavage = CDCP1 cleavage in MDA-MB-231 breast cancer cell extracts; assay type: cell-based
# Excerpt: (§1) None of the treatments altered the overall pattern of protein tyrosine phosphorylation. […] Cleavage of CDCP1 may play a role in driving tumor invasion given the preferential binding of the cleaved form of CDCP1 with cell adhesion molecules such as beta1-integrin and E-cadherin.
# PAI-1 = PAI-1 levels in MDA-MB-231 breast cancer cell extracts; assay type: cell-based; conditions: FIG. 6
# Excerpt: as §1
smiles,measurement,setting,value
C[C@@H]1C[C@H]2[C@@H]3CCC4=CC(=O)C=C[C@]4(C)[C@@]3(F)[C@@H](O)C[C@]2(C)[C@@]1(O)C(=O)CO [dexamethasone],CDCP1 cleavage,CDCP1 cleavage,suppress CDCP1 cleavage
same,PAI-1 levels / expression,PAI-1,increasing PAI-1 expression
